The target in this assay is T1, mouse wild-type FGFR4 (FGFR4 Gly385) (mouse, UniProt Q03142 17-799).
T1 construct: Endogenous hepatic FGFR4, immunoprecipitated from mouse liver lysates; also called hepatic FGFR4
The experiment in a line: in vivo SILAC LC-MS/MS of FGFR4 immunoprecipitates from mouse liver.

Sequences of proteins named here, by UniProt entry; tags and fusion partners are left off. A change or cut given only in a name is not applied to a line headed by its entry.
UniProt Q03142: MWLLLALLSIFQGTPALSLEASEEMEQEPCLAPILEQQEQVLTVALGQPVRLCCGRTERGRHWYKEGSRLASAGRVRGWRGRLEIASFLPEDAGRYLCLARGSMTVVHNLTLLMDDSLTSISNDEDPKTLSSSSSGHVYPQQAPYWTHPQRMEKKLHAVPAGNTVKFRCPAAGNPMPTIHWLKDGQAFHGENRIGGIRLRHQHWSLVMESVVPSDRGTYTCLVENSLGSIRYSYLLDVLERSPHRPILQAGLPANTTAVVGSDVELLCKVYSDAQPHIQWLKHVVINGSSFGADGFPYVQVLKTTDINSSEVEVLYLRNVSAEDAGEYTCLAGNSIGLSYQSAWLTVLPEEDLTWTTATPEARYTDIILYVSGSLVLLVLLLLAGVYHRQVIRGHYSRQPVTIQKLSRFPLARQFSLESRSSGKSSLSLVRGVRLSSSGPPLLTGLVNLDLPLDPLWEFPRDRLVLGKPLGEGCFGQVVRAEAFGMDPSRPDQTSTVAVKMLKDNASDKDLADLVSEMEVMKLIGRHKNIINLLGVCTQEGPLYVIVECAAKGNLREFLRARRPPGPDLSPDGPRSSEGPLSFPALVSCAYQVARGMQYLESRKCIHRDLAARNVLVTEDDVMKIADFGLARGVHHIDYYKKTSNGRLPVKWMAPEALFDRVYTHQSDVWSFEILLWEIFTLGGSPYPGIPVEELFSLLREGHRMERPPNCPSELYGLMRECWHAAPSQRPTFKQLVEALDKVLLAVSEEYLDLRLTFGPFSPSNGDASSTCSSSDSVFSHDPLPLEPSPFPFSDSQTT

Results are given in words; binding and its absence hold for the method and conditions named. Some binding calls cover weakened binding; strength is not graded here.

B1: Beta-klotho (receptor, mouse, UniProt Q99N32 1-1043, looked up)
chain: MKTGCAAGSPGNEWIFFSSDERNTRSRKTMSNRALQRSAVLSAFVLLRAVTGFSGDGKAIWDKKQYVSPVNPSQLFLYDTFPKNFSWGVGTGAFQVEGSWKTDGRGPSIWDRYVYSHLRGVNGTDRSTDSYIFLEKDLLALDFLGVSFYQFSISWPRLFPNGTVAAVNAQGLRYYRALLDSLVLRNIEPIVTLYHWDLPLTLQEEYGGWKNATMIDLFNDYATYCFQTFGDRVKYWITIHNPYLVAWHGFGTGMHAPGEKGNLTAVYTVGHNLIKAHSKVWHNYDKNFRPHQKGWLSITLGSHWIEPNRTDNMEDVINCQHSMSSVLGWFANPIHGDGDYPEFMKTGAMIPEFSEAEKEEVRGTADFFAFSFGPNNFRPSNTVVKMGQNVSLNLRQVLNWIKLEYDDPQILISENGWFTDSYIKTEDTTAIYMMKNFLNQVLQAIKFDEIRVFGYTAWTLLDGFEWQDAYTTRRGLFYVDFNSEQKERKPKSSAHYYKQIIQDNGFPLKESTPDMKGRFPCDFSWGVTESVLKPEFTVSSPQFTDPHLYVWNVTGNRLLYRVEGVRLKTRPSQCTDYVSIKKRVEMLAKMKVTHYQFALDWTSILPTGNLSKVNRQVLRYYRCVVSEGLKLGVFPMVTLYHPTHSHLGLPLPLLSSGGWLNMNTAKAFQDYAELCFRELGDLVKLWITINEPNRLSDMYNRTSNDTYRAAHNLMIAHAQVWHLYDRQYRPVQHGAVSLSLHCDWAEPANPFVDSHWKAAERFLQFEIAWFADPLFKTGDYPSVMKEYIASKNQRGLSSSVLPRFTAKESRLVKGTVDFYALNHFTTRFVIHKQLNTNRSVADRDVQFLQDITRLSSPSRLAVTPWGVRKLLAWIRRNYRDRDIYITANGIDDLALEDDQIRKYYLEKYVQEALKAYLIDKVKIKGYYAFKLTEEKSKPRFGFFTSDFRAKSSVQFYSKLISSSGLPAENRSPACGQPAEDTDCTICSFLVEKKPLIFFGCCFISTLAVLLSITVFHHQKRRKFQKARNLQNIPLKKGHSRVFS
notes: Endogenous protein co-immunoprecipitated with hepatic FGFR4; also called βKlotho
For B1, the binding result is given as “binds”.
